{"source": "PubChem BioAssay AID1259308 (NCATS, 2017)", "assay": "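Candidate targets for better recombinant protein yield in mammalian cells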 (primary screen)", "cells": "human HEK293 embryonic kidney cells stably expressing firefly luciferase (HEK-CMV-Luc2-Hygro)", "knock-down reagent": "single siRNA against human genes, 0.8 pmol siRNA per well", "timing": "72 h", "measured": "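Reporter luminescence and viable-cell signal on separate replicate plates, given as percent of non-targeting control and median/MAD z-scores, plus per-cell luciferase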", "scale": "total luciferase, z-score: higher = more reporter protein produced", "rule for the call": "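Active when the median/MAD z-score for overall luciferase is greater than 3; a gene was taken forward for validation with new siRNAs if at least two of its three siRNAs passed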", "meaning of the calls": "active = raised luciferase; inactive = no rise", "note": "This is an unselected part of about 59,000 deposited reagents. About 1,510 of all reagents (2.6%) were called active. 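Calls use total luciferase alone and ignore viability, so some active siRNAs may act by altering cell number.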 The numbers tell different reagents against one gene apart. Further read-outs or replicates are left out here."}
The opening 2 entries as a preview:
{"gene":"TRAPPC5","reagent":1,"total luciferase, z-score":0.288,"Call":"inactive"}
{"gene":"TRAPPC5","reagent":2,"total luciferase, z-score":1.57,"Call":"inactive"}

Main list, from the start:
{"gene":"TRAPPC5","reagent":1,"total luciferase, z-score":0.288,"Call":"inactive"}
{"gene":"TRAPPC5","reagent":2,"total luciferase, z-score":1.57,"Call":"inactive"}
{"gene":"TRAPPC5","reagent":3,"total luciferase, z-score":-0.908,"Call":"inactive"}
{"gene":"DEFB136","reagent":1,"total luciferase, z-score":0.0465,"Call":"inactive"}
{"gene":"DEFB136","reagent":2,"total luciferase, z-score":0.807,"Call":"inactive"}
{"gene":"DEFB136","reagent":3,"total luciferase, z-score":0.189,"Call":"inactive"}
{"gene":"PLA2G4D","reagent":1,"total luciferase, z-score":0.571,"Call":"inactive"}
{"gene":"PLA2G4D","reagent":2,"total luciferase, z-score":1.86,"Call":"inactive"}
{"gene":"PLA2G4D","reagent":3,"total luciferase, z-score":-0.289,"Call":"inactive"}
{"gene":"ZSWIM7","reagent":1,"total luciferase, z-score":1.04,"Call":"inactive"}
{"gene":"ZSWIM7","reagent":2,"total luciferase, z-score":0.228,"Call":"inactive"}
{"gene":"ZSWIM7","reagent":3,"total luciferase, z-score":-1.18,"Call":"inactive"}
